Assay results from PubChem BioAssay AID662 (National Center for Advancing Translational Sciences (NCATS), 2007).
Some of the results follow. Shown are side measurements of this screen, not its main read-out; they come without a call. Most of these compounds were active or inconclusive in the main read-out, so they are no random draw. The note in brackets gives the kind of curve behind each potency; many fits are weak.

assay: Cell signaling CRE-BLA (Fsk stim); settings: CHO CRE-bla reporter (cAMP response element driving beta-lactamase), forskolin EC10, beta-lactamase ratio; measured here: 460 nm blue channel
Outline: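 Beta-lactamase reporter under a cAMP responsive element in CHO cells; compounds tested in titration series against EC10 NKH 477, 3 h at 37 °C. Read-out: CCF4 FRET ratio 460nm/530nm (excitation 405nm) giving %Activity, fitted to AC50.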

SMILES | AC50
O=C(CN1CCOCC1)NCc1ccccc1 | 0.794 µM [falling, full curve, poor fit]
COc1ccc2nc(NC(=O)Cc3ccc(OC)c(S(=O)(=O)N4CCOCC4)c3)sc2c1 | 10 µM [rising, partial curve]
N#Cc1cccc(-c2cc(NCc3ccccc3)ncn2)c1 | 6.31 µM [rising, partial curve]
Cn1c2ccccc2c2ncn(Cc3ccco3)c(=O)c21 | 10 µM [rising, partial curve]
Cc1ccc(-n2nnnc2SCc2nnc(-c3ccccc3Br)o2)c(C)c1 | 0.1 µM [falling, full curve]
COc1cccc(-n2nnc3c(=O)n(Cc4cccc(C)c4)cnc32)c1 | 12.6 µM [rising, partial curve]
O=C(COC(=O)C1=COCCO1)Nc1ncc(C(F)(F)F)cc1Cl | 0.0794 µM [falling, partial curve, poor fit]
COc1ccc(OC)c(C2SCCN2S(=O)(=O)c2cccc(C(F)(F)F)c2)c1 (centres undefined) | 0.794 µM [falling, partial curve, poor fit]
COc1cc(-c2nnc3sc(Cc4ccc(Cl)cc4)nn23)cc(OC)c1OC | 2 µM [rising, full curve]
O=C(Oc1ccnc2cc(Cl)ccc12)N1CCOCC1 | 0.00631 µM [falling, full curve]
Cc1ccc(Cn2nnc3c(=O)n(CC(=O)N4CCCc5ccccc54)cnc32)cc1 | 0.631 µM [falling, full curve]
COc1nnc(-c2ccc(N3CCOCC3)c(NC(C)=O)c2)c2ccccc12 | 0.398 µM [rising, full curve]
c1ccc2c(c1)[nH]c1nc(SCCN3CCOCC3)nnc12 | 12.6 µM [rising, single point]
CN(C)CCCOC(=O)Cc1ccc(Cl)cc1 | 0.794 µM [falling, full curve]
Cn1c(C(=O)NCCN2CCCCCC2)cc2c(=O)n(C)c3ccccc3c21 | 6.31 µM [rising, partial curve]
NC(=Nc1ccccc1)NC(=O)c1nc(Cl)c(N)nc1N | 25.1 µM [rising, partial curve]
CCCCn1c(CN2CCN(c3cccc(Cl)c3)CC2)nc2c1c(=O)n(C)c(=O)n2C | 5.01 µM [falling, partial curve]
Cc1cccc(S(=O)(=O)Nc2nc3ccccc3nc2NCc2ccco2)c1 | 7.94 µM [rising, partial curve]
CSc1ncccc1C(=O)OCC(=O)c1cc2ccccc2o1 | 5.01 µM [falling, single point]
CCN1C(=O)/C(=C/N(C)C)c2ccccc21 | 3.16 µM [falling, full curve, poor fit]
COc1ccc(Cc2nnc3n2N=C(c2cc4ccccc4o2)CS3)cc1OC | 3.98 µM [rising, partial curve]
O=C(O)CC(CC(=O)O)C(=O)O | 0.501 µM [rising, single point]
O=C(COc1ccc2ccccc2c1Br)N1CCOCC1 | 15.8 µM [falling, partial curve]

SMILES | AC50
COCCN(CCOC)c1cc(C)c(C#N)c2nc3ccccc3n12 | 12.6 µM [rising, partial curve]
N#Cc1c(N2CCCC2)nc(N)c2c(N)nc(N3CCCC3)cc12 | 3.16 µM [rising, single point]
O=C(O)c1cc(S(=O)(=O)N2CCCCCC2)c(Cl)cc1Cl | 0.631 µM [falling, full curve]
CCN(CC)c1ccc(-c2nc3cnccc3n2C)cc1 | 1.26 µM [rising, partial curve]
O=C(NCc1ccccn1)c1ccc(Br)s1 | 12.6 µM [falling, partial curve]
Cc1sc2nc(CSc3nnc(Cc4cccs4)n3C3CCCCC3)[nH]c(=O)c2c1C | 12.6 µM [rising, single point]
CC(=O)NCCNc1nc(-c2cccc(C#N)c2)nc2ccccc12 | 7.94 µM [rising, partial curve]
CC(C(=O)N1c2ccccc2Sc2ccccc21)n1nnc(-c2cccs2)n1 (centres undefined) | 20 µM [falling, partial curve, poor fit]
CC(=O)Nc1ccc(SCC(=O)OCC(=O)NC(=O)NCc2ccco2)cc1 | 0.251 µM [falling, partial curve]
CCn1c(NC(=O)c2cccs2)nc2ccccc21 | 6.31 µM [falling, partial curve]
O=c1[nH]c2cc(Cl)cc(Cl)c2[nH]c1=O | 3.16 µM [falling, single point]
CSc1ccccc1N=Cc1nc(-c2ccccc2)oc1O | 15.8 µM [rising, single point]
COC(=O)Cn1cnc2sc(C)c(S(=O)(=O)N3CCC(C)CC3)c2c1=O | 0.00398 µM [falling, full curve, poor fit]
COc1ccccc1C1C=C(c2ccc(Cl)cc2)Nc2nc(N3C(=O)CCC3=O)nn21 (centres undefined) | 25.1 µM [rising, single point]
COC(=O)C1=CNC=C(C(=O)OC)C1c1ccc(Cl)cc1 | 10 µM [rising, partial curve]
O=C(OCC(=O)N1CCCC1)c1cncc(Br)c1 | 5.01 µM [falling, single point]
CC1CCC/C(=C\Nc2ccc(O)cc2)C1=O (centres undefined) | 0.2 µM [falling, full curve]
O=C(OCC1COc2ccccc2O1)c1ccccc1F (centres undefined) | 5.01 µM [falling, single point]
Cc1cccc(N2CCN(C(=O)Cn3sc4nc(C)cc(C)c4c3=O)CC2C)c1 (centres undefined) | 25.1 µM [falling, single point]
COc1ccccc1-n1c(=S)sc2c(=O)n(Cc3ccco3)c(SC)nc21 | 3.16 µM [rising, partial curve]
CCOC(=O)N1CCN(Cc2nc3c(c(=O)n(C)c(=O)n3C)n2Cc2ccc(F)cc2)CC1 | 12.6 µM [rising, partial curve]
CCOC(=O)N1CCC(NC(=O)c2cccc3c2C(=O)N(c2ccc(OC)cc2)C3)CC1 | 5.01 µM [rising, partial curve]
C=CCn1c(-c2ccc(OC)c(OC)c2)cs/c1=N\c1ccccn1 | 25.1 µM [rising, single point]

SMILES | AC50
CC(C)(C)c1cnnn1-c1ccc(NC(=O)c2ccc(Br)o2)cc1 | 10 µM [rising, single point]
CN(Cc1ccccc1)c1nc2c(c(=O)[nH]c(=O)n2C)n1CCOc1ccccc1 | 10 µM [rising, partial curve]
COC(=O)[C@@H](NC(=O)Nc1ccc(C(C)=O)cc1)C(C)C | 3.98 µM [falling, full curve, poor fit]
CC1(Cc2cn(CCC#N)c3ccccc23)OCCO1 | 6.31 µM [rising, partial curve]
Cc1cccc(-n2cnc3cc(C(=O)N4CCCCC4)ccc32)c1 | 25.1 µM [rising, single point]
CCCNC(=O)NC(=O)COC(=O)c1ccc(OC)c(S(=O)(=O)N2CCCc3ccccc32)c1 | 20 µM [falling, single point]
CC(=O)Nc1ccc(N2CCOCC2)c(C(=O)Nc2cccc(C)c2)c1 | 5.01 µM [falling, single point]
Cc1ccc2cc(C)c3nnc(SCC(=O)NCc4ccco4)n3c2c1 | 10 µM [rising, single point]
CS(=O)(=O)N1CCc2cc(-c3csc(NC(=O)Cc4cccs4)n3)ccc21 | 25.1 µM [falling, single point]
COC(=O)c1ccc(CSc2ncnc3c2oc2ccccc23)o1 | 3.16 µM [rising, full curve]
Cc1ccc(SCc2cc(=O)[nH]c(N3CCN(Cc4ccccc4)CC3)n2)cc1 | 12.6 µM [falling, single point]
CC(=O)c1c(C)nc2nonc2c1N | 12.6 µM [rising, single point]
C[N+]1(C)CCO[C@](O)(c2ccccc2)C1 | 3.98 µM [rising, partial curve]
CCOC(=O)c1ccccc1NC(=O)c1c(F)c(F)c(F)c(F)c1F | 0.00316 µM [falling, full curve, poor fit]
COc1cccc(C(c2nnnn2Cc2ccc(F)cc2)N2CCC(C(N)=O)CC2)c1OC (centres undefined) | 10 µM [falling, partial curve, poor fit]
Cc1cc(C)cc(Nc2cc(=O)n(C3CCCCC3)c(=O)[nH]2)c1 | 3.16 µM [rising, single point]
CCOc1ccc(-c2nnc(-c3cccnc3)o2)cc1OCC | 15.8 µM [rising, single point]
NC(=O)CNC(=O)C1CCCc2c1[nH]c1ccc(Cl)cc21 (centres undefined) | 7.94 µM [falling, partial curve]
Cc1noc(C)c1COC(=O)c1cc(C)n(-c2ccccc2)c1C | 6.31 µM [rising, partial curve]
COc1ccc(C)cc1-n1nnnc1SCc1nc2ccccc2s1 | 1.58 µM [falling, partial curve]
Fc1ccc(Br)cc1C1C=C(c2ccc(Br)s2)Nc2ncnn21 (centres undefined) | 12.6 µM [rising, single point]
O=C(NCCc1c[nH]c2ccccc12)c1ccc(S(=O)(=O)NCc2ccco2)cc1 | 7.94 µM [falling, partial curve]
COc1ccc(OC)c(C(=O)CC2OC(=O)c3ccccc32)c1 (centres undefined) | 0.794 µM [falling, partial curve]

Entries above with a COOH group (two):
SMILES | AC50
O=C(O)CC(CC(=O)O)C(=O)O | 0.501 µM [rising, single point]
O=C(O)c1cc(S(=O)(=O)N2CCCCCC2)c(Cl)cc1Cl | 0.631 µM [falling, full curve]

Random excerpt: two entries already listed, in no set order.
SMILES | AC50
CCOc1ccc(-c2nnc(-c3cccnc3)o2)cc1OCC | 15.8 µM [rising, single point]
CC(=O)Nc1ccc(N2CCOCC2)c(C(=O)Nc2cccc(C)c2)c1 | 5.01 µM [falling, single point]
